# Measurements reported in PMC6874091.
# The chains behind the UniProt entries cited, without tags or fusion partners.
# UniProt Q14258: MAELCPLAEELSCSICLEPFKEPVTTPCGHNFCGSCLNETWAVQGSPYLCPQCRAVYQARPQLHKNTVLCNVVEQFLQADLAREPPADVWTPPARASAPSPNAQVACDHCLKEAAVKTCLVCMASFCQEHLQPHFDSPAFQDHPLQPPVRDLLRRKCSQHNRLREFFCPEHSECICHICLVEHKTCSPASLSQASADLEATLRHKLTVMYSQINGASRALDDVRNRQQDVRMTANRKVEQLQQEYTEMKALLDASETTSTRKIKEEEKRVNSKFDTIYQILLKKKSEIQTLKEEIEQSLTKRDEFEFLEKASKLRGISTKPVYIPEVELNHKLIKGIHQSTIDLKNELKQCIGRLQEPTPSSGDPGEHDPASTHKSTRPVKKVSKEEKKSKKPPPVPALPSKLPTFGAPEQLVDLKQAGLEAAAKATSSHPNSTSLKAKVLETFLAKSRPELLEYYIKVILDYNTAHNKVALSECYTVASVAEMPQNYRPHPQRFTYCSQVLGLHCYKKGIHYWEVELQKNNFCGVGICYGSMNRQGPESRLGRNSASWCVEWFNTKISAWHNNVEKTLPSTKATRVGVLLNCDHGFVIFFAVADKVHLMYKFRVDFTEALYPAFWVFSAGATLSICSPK
# These are yes or no findings as the source states them, for the method shown. For part of these data: Binding seen in cells or lysates may run through a third protein. Some results given as binding are weak or reduced against the parent protein; the word gives no strength.
# Assays:
# [1] = target: 3xFLAG-BPLF1 (amino acid residues 1-235), catalytically active N-terminal deconjugase domain of the Epstein-Barr virus large tegument protein BPLF1 (Epstein-Barr virus (EBV)) (UniProt P03186); test: co-IP; FLAG-tagged BPLF1 constructs immunoprecipitated with anti-FLAG agarose from lysates of transfected HeLa cells (NP-40 lysis buffer, 4 h, eluted with FLAG peptide); blots probed for endogenous TRIM25, 14-3-3 and 14-3-3 isoforms; with or without phosphatase inhibitors
# [2] = target: 3xFLAG-BPLF1-D86-90R (helix-2 mutant) (Epstein-Barr virus (EBV)) (UniProt P03186); test: as above
# [3] = target: 6xHis-BPLF1 (amino acid 1-274), bacterially expressed (Epstein-Barr virus (EBV)) (UniProt P03186); test: SEC; gel filtration of purified 6xHis-BPLF1 on Superdex 75 10/300 GL in 20 mM Tris-HCl pH 7.5, 150 mM NaCl; both purified
Substance,binding [1],binding [2],binding [3]
TRIM25 (endogenous) (from UniProt Q14258 1-630),binds,binds,
"6xHis-BPLF1 (amino acid 1-274), bacterially expressed (from UniProt P03186 1-274) (domain or fragment)",,,no binding
